Reference: patent US6949349
These are yes or no findings as the source states them, for the method shown. A result given as binding can be weak or reduced; the word gives no strength.

Legend:
[1] = molecular target: T1, recombinant human IGFBP-1 (human, UniProt P08833 26-259); assay: competitive displacement of 125I-IGF-I from plate-coated IGFBP
T1 sequence (looked up): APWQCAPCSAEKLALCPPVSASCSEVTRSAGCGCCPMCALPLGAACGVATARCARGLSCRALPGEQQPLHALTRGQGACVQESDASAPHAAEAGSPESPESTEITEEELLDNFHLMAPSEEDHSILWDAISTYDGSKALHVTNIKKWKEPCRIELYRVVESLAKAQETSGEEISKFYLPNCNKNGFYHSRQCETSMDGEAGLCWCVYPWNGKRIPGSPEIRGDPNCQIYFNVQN

[2] = molecular target: T1, recombinant human IGFBP-1; assay: competitive displacement of 125I-IGF-I from plate-coated rhIGFBP-1

binding [1]: binds
binding [2]: binds
Substance: (Leu^24, Ala^31)hIGF-I (ligand)
